Measurements: patent US20260167693A1
These are yes or no findings as the source states them, for the method shown. Some results given as binding are weak or reduced against the parent protein; the word gives no strength. Where a sequence is shown, tags or fusion partners need not be part of it.

Protein sequences, listed by entry. Tags and fused reporters are not part of them. Residues count along the entry.
UniProt P40238, residues 26-635: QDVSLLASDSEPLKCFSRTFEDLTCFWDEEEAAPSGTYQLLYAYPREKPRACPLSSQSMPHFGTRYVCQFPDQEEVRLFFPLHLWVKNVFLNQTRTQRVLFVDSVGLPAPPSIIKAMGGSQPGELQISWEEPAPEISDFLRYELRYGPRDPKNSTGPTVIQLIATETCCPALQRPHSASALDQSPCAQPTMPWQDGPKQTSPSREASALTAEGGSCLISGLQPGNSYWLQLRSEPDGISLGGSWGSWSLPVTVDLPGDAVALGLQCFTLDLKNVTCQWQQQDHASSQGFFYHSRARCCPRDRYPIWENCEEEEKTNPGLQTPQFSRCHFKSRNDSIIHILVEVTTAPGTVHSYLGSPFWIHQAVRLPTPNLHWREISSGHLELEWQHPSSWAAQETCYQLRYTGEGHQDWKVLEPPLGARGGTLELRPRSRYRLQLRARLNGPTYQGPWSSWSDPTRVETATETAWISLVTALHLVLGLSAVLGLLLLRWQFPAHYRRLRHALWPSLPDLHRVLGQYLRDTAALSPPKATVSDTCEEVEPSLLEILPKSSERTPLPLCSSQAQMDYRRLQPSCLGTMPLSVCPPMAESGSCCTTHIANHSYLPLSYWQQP

Target: human MPL (Thrombopoietin receptor) (human) (UniProt P40238)
Test: scFv-NLuc supernatant on cells, 4 C 1 h, NLuc activity

binding: binds
B1: 161-GGSG-NLuc-AcV5 (scFv, not shown: large carriers)
scFv: DIQMTQSSSSFSVSLGDRVTITCMASEDIYIRLAWYQQKPGNAPRLLISAATSLETGVPSRFSGSGSGKDYTLSITSLQTEDVGTYYCQQYWSSPWTFGGGTKLEINGGGGSGGGGSGGGGSDVQLQESGPGLVKPSQSLSLTCTVTGYSITSDYTWNWIRQFPGNKLEWMGYITYSGSTSYNPSLKSRNSITRDTSKNQFFLQLNSVTTEDTATYYCARLGRRYTMDYWGQGTSVTVSSGGSG
